{
  "source": "patent US12203938B2",
  "about": "“Levetiracetam immunoassays” (ARK Diagnostics, Inc., priority 2008, dated 2025)",
  "system": "rabbit polyclonal antibody #12019-P8",
  "assay": "Accuracy of measurement of levetiracetam Quality Control samples in the homogeneous enzyme immunoassay",
  "type": "binding",
  "details": "for Mean (μg/mL ± SD): human serum; for Accuracy (%): percentage of the nominal value",
  "method": "The levetiracetam derivative antibodies and enzyme conjugates may be advantageously used in a homogeneous assay format to detect levetiracetam in samples. An enzyme immunoassay or ARK Assay, which is a homogeneous enzyme immunoassay experiment, was performed to test antibodies prepared as described in Example 22. The ARK Assay for levetiracetam was conducted using a liquid, ready-to-use, two-reagent kit. A clinical chemistry analyzer useful to set up the assay is HITACHI 917. The HITACHI 917 is an automated biochemistry analyzer used by medical laboratories to process biological fluid specimens, such as urine, cerebrospinal fluid, and most commonly, blood. Manufactured by Boehringer Mannheim, the HITACHI 917 is a commonly used routine chemical chemistry. Levetiracetam containing sample was incubated with antibody reagent followed by the addition of the enzyme conjugate reagent. The enzyme conjugate activity decreases upon binding to the antibody. […] The oxidation of G6P is coupled with the reduction of NAD to NADH, which was measured at 340 nm. The change in the absorbance at 340 nm was measured spectrophotometrically. The levetiracetam concentration in a specimen was measured in terms of G6PDH activity. The increase in the rate at 340 nm was due to the formation of NADH and is proportional to the enzyme conjugate activity. An assay calibration curve was generated using levetiracetam spiked into negative calibrator matrix. The assay rate increases with increasing the concentration of drug in the sample.\nLevetiracetam was dissolved in methanol to give a stock solution of 1000 μg/mL. Pooled human serum was aliquoted in 10 mL portions. Levetiracetam stock solution was added to the aliquots of human serum in preparing a series of known concentrations of levetiracetam calibrators ranging from 0 to 100 μg/mL. Similarly, Quality Control samples were prepared (15.0, 35.0 and 75.0 μg/mL). The antibody/substrate reagent #11341P4-6-Ab containing antibody ##12019-P8 was assayed with enzyme reagent #110607-D63-E containing conjugate (44-G6PDH). Calibration curves were generated on the HITACHI 917 automated clinical chemistry analyzer, as described in Example 23 by assaying each level in duplicate.\nThree levetiracetam Quality Control samples were prepared as described in Example 24 to give concentrations of levetiracetam of 15.0, 35.0 and 75.0 μg/mL. Enzyme Conjugate Reagent #110607-D63-E containing conjugate (44-G6PDH) and Antibody Reagent #11341P4-6-Ab containing antibody ##12019-P8 was used to generate precision data shown in Table 3. The accuracy data were derived from 2 runs on the same day. Each run for generating a calibration curve includes 10 replicates of each QC level per run with a total of 20 replicates from 2 runs.\nQuantification was performed on the HITACHI 917 analyzer as described in Example 23. Also, the accuracy of the measurement was calculated as a percentage of the nominal value of the QC samples (Table 3).",
  "data": [
    {"molecule": "CC[C@@H](C(N)=O)N1CCCC1=O", "note": "(single isomer, unassigned) [Levetiracetam]", "values": [
      {"measurement": "Mean (μg/mL ± SD)", "setting": "QC Conc. 15.0 μg/mL", "result": "14.88 ± 1.02", "unit": "µg/mL"},
      {"measurement": "Accuracy (%)", "setting": "QC Conc. 15.0 μg/mL", "result": 99.21, "unit": "%"},
      {"measurement": "Mean (μg/mL ± SD)", "setting": "QC Conc. 35.0 μg/mL", "result": "35.77 ± 2.85", "unit": "µg/mL"},
      {"measurement": "Accuracy (%)", "setting": "QC Conc. 35.0 μg/mL", "result": 102.19, "unit": "%"},
      {"measurement": "Mean (μg/mL ± SD)", "setting": "QC Conc. 75.0 μg/mL", "result": "77.16 ± 4.48", "unit": "µg/mL"},
      {"measurement": "Accuracy (%)", "setting": "QC Conc. 75.0 μg/mL", "result": 102.88, "unit": "%"}
    ]}
  ]
}
